Measurements: publication PMC3097235
Results are given in words; binding and its absence hold for the method and conditions named. Binding seen in cells or lysates may run through a third protein. Some binding calls cover weakened binding; strength is not graded here.

What was measured:
[1] = target: T1, calnexin (human (endogenous in HEK 293)) (UniProt P27824); experiment: co-IP; HEK 293 cells transfected with tyrosinase constructs, pulsed 20 min with 35S Met/Cys, chased 0, 0.5, 1, 2 h; 2% CHAPS lysates precipitated with anti-calnexin or anti-calreticulin, eluted with 1% SDS, re-precipitated with T311 anti-tyrosinase; SDS-PAGE, autoradiography
T1 sequence: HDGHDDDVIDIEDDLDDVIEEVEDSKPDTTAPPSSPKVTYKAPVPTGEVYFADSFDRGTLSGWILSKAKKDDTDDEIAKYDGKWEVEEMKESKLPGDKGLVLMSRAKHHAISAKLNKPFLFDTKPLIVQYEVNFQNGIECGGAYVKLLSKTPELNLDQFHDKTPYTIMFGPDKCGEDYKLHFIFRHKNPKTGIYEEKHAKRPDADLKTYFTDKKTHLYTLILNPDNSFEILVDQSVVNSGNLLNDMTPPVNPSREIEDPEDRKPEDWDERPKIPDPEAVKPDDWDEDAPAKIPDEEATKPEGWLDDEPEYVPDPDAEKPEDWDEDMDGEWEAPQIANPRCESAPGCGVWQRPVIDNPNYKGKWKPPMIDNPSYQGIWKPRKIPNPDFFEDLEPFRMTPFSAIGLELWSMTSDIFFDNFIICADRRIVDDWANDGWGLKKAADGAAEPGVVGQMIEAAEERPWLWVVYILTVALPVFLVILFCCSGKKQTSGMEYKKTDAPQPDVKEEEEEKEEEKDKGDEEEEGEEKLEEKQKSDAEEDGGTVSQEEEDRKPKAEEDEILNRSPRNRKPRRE

[2] = target: calreticulin (human (endogenous in HEK 293)) (UniProt P27797); experiment: as above

B1: human tyrosinase N-glycosylation mutant Δ3 (N161Q) (enzyme, UniProt P14679 19-529)
chain: HFPRACVSSKNLMEKECCPPWSGDRSPCGQLSGRGSCQNILLSNAPLGPQFPFTGVDDRESWPSVFYNRTCQCSGNFMGFNCGNCKFGFWGPNCTERRLLVRRNIFDLSAPEKDKFFAYLTLAKHTISSDYVIPIGTYGQMKQGSTPMFNDINIYDLFVWMHYYVSMDALLGGSEIWRDIDFAHEAPAFLPWHRLFLLRWEQEIQKLTGDENFTIPYWDWRDAEKCDICTDEYMGGQHPTNPNLLSPASFFSSWQIVCSRLEEYNSHQSLCNGTPEGPLRRNPGNHDKSRTPRLPSSADVEFCLSLTQYESGSMDKAANFSFRNTLEGFASPLTGIADASQSSMHNALHIYMNGTMSQVQGSANDPIFLLHHAFVDSIFEQWLRRHRPLQEVYPEANAPIGHNRESYMVPFIPLYRNGDFFISSKDLGYDYSYLQDSDPDSFQDYIKSYLEQASRIWSWLLGAAMVGAVLTALLAGLVSLLCRHKRKQLPEEKQPLLMEKEDYHSLYQSHL
binding [1]: binds
binding [2]: binds weakly
